Test results: patent US12319709B2, “Diaryl trehalose compounds and uses thereof” (THE UNIVERSITY OF MONTANA, priority 2018, dated 2025)
For at least one compound, name, drawing or mass did not settle the structure.

Tested on: peripheral blood mononuclear cells (PBMCs)
Assay: Cytokine analysis of supernatants of stimulated, freshly prepared PBMCs
Type: cell-based, human
Details: compounds solubilized in DMSO
Experimental: Tumor necrosis factor alpha (TNFα) and IL-6 production in peripheral blood mononuclear cells (PBMCs) was measured after exposure to various concentrations of the DAT compounds synthesized as shown above. Initial studies focused on two different methods of delivery of the DAT compounds to PBMC cultures. In the first delivery method, the indicated derivative compound was dissolved in isopropanol, serially diluted, and then dried to the bottom of a tissue culture plate. In the second delivery method, the indicated derivative compound was dissolved in DMSO and serially diluted into tissue culture media. In each method, PBMCs were added to the compounds and incubated at 37° C. TNFα (FIG. 1A) and IL-6 (FIG. 1B) were measured after 18-24 hours after treatment by ELISA assay.
Supernatants from the freshly prepared PBMCs stimulated with DAT compounds solubilized in DMSO (Example 5A) were analyzed for the cytokines that help drive Th1 cell or Th17 cell adaptive immune responses; IFNγ, IL-12 p70, IL-6, IL-1β, and IL-23. Minimal amounts of IL-12p70 were detected and IFNγ was undetectable. Therefore, both are not reported.

## CCc1cc(CC)cc(C(=O)OCC2OC(OC3OC(COC(=O)c4cc(CC)cc(CC)c4)C(O)C(O)C3O)C(O)C(O)C2O)c1 (stereo not shown) [UM1017]
  TNFα response in PBMCs (in words): higher responding
